# Experimental data: PubChem BioAssay AID743255 (National Center for Advancing Translational Sciences (NCATS), 2014)
# Protein sequences, listed by entry. Tags and fused reporters are not part of them. Lines headed by an entry give the natural chain unless they say otherwise; changes in a name come on top.
# UniProt O94782: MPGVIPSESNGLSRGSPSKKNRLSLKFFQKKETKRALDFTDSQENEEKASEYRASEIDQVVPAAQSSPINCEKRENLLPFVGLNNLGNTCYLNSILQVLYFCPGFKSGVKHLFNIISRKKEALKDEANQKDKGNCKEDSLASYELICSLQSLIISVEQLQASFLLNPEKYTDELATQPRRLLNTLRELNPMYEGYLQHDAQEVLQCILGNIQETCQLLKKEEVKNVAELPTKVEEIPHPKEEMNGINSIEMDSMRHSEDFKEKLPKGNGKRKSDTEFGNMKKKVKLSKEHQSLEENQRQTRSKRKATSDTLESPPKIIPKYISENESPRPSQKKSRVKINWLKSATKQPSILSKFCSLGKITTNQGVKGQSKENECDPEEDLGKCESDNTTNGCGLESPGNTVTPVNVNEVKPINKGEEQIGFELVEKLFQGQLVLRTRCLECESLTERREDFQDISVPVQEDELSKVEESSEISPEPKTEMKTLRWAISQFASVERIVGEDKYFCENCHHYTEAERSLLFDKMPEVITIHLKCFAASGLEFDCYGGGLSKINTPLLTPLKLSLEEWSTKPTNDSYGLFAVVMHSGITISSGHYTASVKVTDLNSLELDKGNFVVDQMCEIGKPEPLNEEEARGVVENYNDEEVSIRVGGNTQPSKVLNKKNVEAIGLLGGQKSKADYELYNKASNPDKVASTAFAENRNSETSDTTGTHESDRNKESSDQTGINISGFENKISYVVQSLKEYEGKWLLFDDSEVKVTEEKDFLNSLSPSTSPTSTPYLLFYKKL
# Screen size: about 390,000 compounds; about 910 (0.23%) were called active. Inconclusive results, whose numbers are uncertain, are shown with a selection of clear calls. The call rests on the fitted dose curve; in most records, active means well fitted inhibition curve with a large enough effect; inconclusive means small, poorly fitted or top-dose-only effect; inactive means no such curve, though single readings can be large or run the other way. Where the call is inconclusive, the potency comes from a doubtful curve fit.
# Target: Ubiquitin carboxyl-terminal hydrolase 1 (Homo sapiens) (UniProt O94782)
# Assay: Inhibitors of USP1/UAF1: Primary Screen; further: nearly all actives have a fitted effect of over 60% in size
# Conditions: recombinant USP1/UAF1, Ub-Rhodamine cleavage fluorescence; series mostly up to 57.1 µM
# Method in brief: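 Step one: compound is pinned into 1nM USP1/UAF1 in HEPES pH 7.8 buffer with TCEP. Step two: 15 min room-temperature incubation. Step three: Ub-Rho (150nM final) starts cleavage, tracked by fluorescence over six one-minute reads.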
# Potency means the concentration at half of the fitted maximal effect.
row,SMILES,Potency
1,O=C(O)c1cccc2cccc(-c3c4ccc(=O)c(O)c-4oc4c(O)c(O)ccc34)c12,"inconclusive: 31.6 µM [inhibitor, partial curve, poor fit]"
2,Cc1[nH]c(=O)[nH]c(=O)c1NS(=O)(=O)c1ccc2c(c1)CCCC2,"inconclusive: 28.2 µM [inhibitor, partial curve]"
3,Cc1ccc(CNC(=O)COc2ccc(S(=O)(=O)N3CCCC3)cc2)cc1,"inconclusive: 3.98 µM [inhibitor, full curve, poor fit]"
4,Cc1ccccc1-c1nn2c(=O)cc(CN3CCN(C(=O)/C=C/c4ccccc4)CC3)nc2s1,"inconclusive: 79.4 µM [inhibitor, partial curve, poor fit]"
5,O=S(=O)(NCC(c1cccs1)S(=O)(=O)c1ccccc1)c1ccc(F)cc1 (stereo unspecified),"inconclusive: 0.251 µM [inhibitor, full curve, poor fit]"
6,CC(C)COc1ccc(C(=O)Nc2cc3nn(-c4ccccc4)nc3cc2Cl)cc1,"inconclusive: 4.47 µM [inhibitor, partial curve]"
7,O=C(COc1ccccc1)NCCc1csc(-c2ccc(Cl)cc2)n1,"inconclusive: 50.1 µM [inhibitor, partial curve, poor fit]"
8,O=c1cc(-c2ccccc2)n2c(SCc3ccc(Cl)cc3)nnc2[nH]1,"inconclusive: 14.1 µM [inhibitor, partial curve, poor fit]"
9,O=C1OCC(CC2=C(O)C(=O)OC2)=C1O,"inconclusive: 39.8 µM [inhibitor, single point]"
10,CCCCOc1cc(NCc2ccccc2)c2ncn(C(C)C)c2c1,"inconclusive: 28.2 µM [inhibitor, partial curve]"
11,FC(F)(F)c1cccc(-c2nc3nc(Cl)c(Cl)nc3[nH]2)c1,inactive
12,COc1ccc(OC)c(NC(=O)c2cc(-c3ccc(Cl)s3)nc3ccccc23)c1,"inconclusive: 0.316 µM [inhibitor, full curve, poor fit]"
13,COc1ccc(NC(=O)N(CCC(C)C)C(C)c2cccs2)c(OC)c1 (stereo unspecified),inactive
14,Cc1sc(NC(=O)C2CCCCC2C(=O)O)c(C(N)=O)c1-c1ccc(C(C)(C)C)cc1 (stereo unspecified),"inconclusive: 39.8 µM [inhibitor, partial curve]"
15,Cc1cc(C)cc(NC(=O)C(=O)NCC(c2ccc3c(c2)OCO3)N2CCN(C)CC2)c1 (stereo unspecified),"inconclusive: 3.16 µM [inhibitor, partial curve]"
16,COc1ccc(/C=N/NC(=O)c2cc(Br)ccc2O)cc1Cn1cc(Cl)cn1,"inconclusive: 44.7 µM [inhibitor, partial curve]"
17,COc1ccc(-n2ncc3c(NC(C)(C)CO)ncnc32)cc1,inactive
18,CCc1ccc(C2CC(=O)NC(SCC(=O)OC(C)C)=C2C#N)cc1 (stereo unspecified),"inconclusive: 0.282 µM [inhibitor, full curve, poor fit]"
19,Cc1cc(C)cc(Nc2cnn(C34CC5CC(CC(CC(=O)O)(C5)C3)C4)c(=O)c2Cl)c1,"inconclusive: 17.8 µM [inhibitor, partial curve]"
20,O=C(Nc1cccc(O)c1)c1cc(-c2ccccc2Cl)on1,"inconclusive: 31.6 µM [inhibitor, single point]"
21,O=C(Nc1nnc(S(=O)(=O)N2CCCC2)s1)c1cccc([N+](=O)[O-])c1,"inconclusive: 0.224 µM [inhibitor, full curve, poor fit]"
22,C/C(=C\C=C(C#N)C#N)c1cc(C#N)c(N)o1,"inconclusive: 31.6 µM [inhibitor, partial curve]"

row,SMILES,Potency
1,Cn1cccc1/C=C1\SC(=S)N(NC(=O)c2ccc(Cl)cc2)C1=O,"inconclusive: 44.7 µM [inhibitor, partial curve, poor fit]"
2,Clc1cccc(Cl)c1Cn1nnc(N2CCCC2)n1,inactive
3,CCc1ccc(NC(=O)C2CCN(S(C)(=O)=O)CC2)cc1,"inconclusive: 5.62 µM [inhibitor, partial curve]"
4,COc1ccc(CNC(=O)COC(=O)CN2C(=O)C3CCCCC3C2=O)cc1 (stereo unspecified),"inconclusive: 11.2 µM [inhibitor, partial curve, poor fit]"
5,COc1ccccc1OCCCn1c(-c2ccc(Cl)cc2)nc2ccccc2c1=O,"inconclusive: 35.5 µM [inhibitor, partial curve]"
6,O=C(CSc1nnc(-c2ccccc2)c(-c2ccccc2)n1)Nc1ccccc1Cl,"inconclusive: 56.2 µM [inhibitor, partial curve, poor fit]"
7,O=C(COC(=O)/C=C/c1ccccc1[N+](=O)[O-])NC1CC1,inactive
8,COc1ccccc1C(=O)Nc1ccccc1SC(=O)c1ccccc1OC,"inconclusive: 44.7 µM [inhibitor, partial curve]"
9,CSc1ccccc1NC(=O)CN(C)CC(=O)Nc1ccccc1F,inactive
10,COc1ccc(N/C(=C2\CCCC2=O)C2CCCCC2)cc1,"inconclusive: 35.5 µM [inhibitor, partial curve]"
11,N#CCCN1CCCN(CCC#N)CCN(CCC#N)CCCN(CCC#N)CC1,"inconclusive: 11.2 µM [inhibitor, partial curve]"
12,CC(=O)N1CCc2cc(S(=O)(=O)C(C)CC(=O)NCc3ccc(C)o3)ccc21 (stereo unspecified),inactive
13,Oc1ccc(/C=N/N2CCOCC2)c(O)c1O,"inconclusive: 35.5 µM [inhibitor, partial curve]"
14,Cc1nc2c(C#N)c[nH]n2c(=O)c1CCO,"inconclusive: 8.91 µM [inhibitor, full curve, poor fit]"
15,C[C@H]1CN([C@@H](C)CO)C(=O)c2cccc(NC(=O)Nc3ccc(C(F)(F)F)cc3)c2O[C@@H]1CN(C)Cc1ccc(Cl)c(Cl)c1,"inconclusive: 50.1 µM [inhibitor, partial curve, poor fit]"
16,CC(=O)NCc1ccc(C(=O)CCl)s1,"inconclusive: 35.5 µM [inhibitor, single point]"
17,CC(Cc1ccccc1)C(=O)NCc1ccccn1 (stereo unspecified),"inconclusive: 2.51 µM [inhibitor, full curve, poor fit]"
18,Cc1ccc(NC(=O)c2cc(C)on2)cc1,inactive
19,COc1ccc(S(=O)(=O)Nc2ccccc2OC)cc1C,"inconclusive: 4.47 µM [inhibitor, partial curve]"
20,CN(C)c1ccnc2sc(C(=O)NCc3ccccc3)c(N)c12,"inconclusive: 28.2 µM [inhibitor, single point]"
21,Cc1ccccc1C(=O)N1CCC(C(=O)Nc2cc(C(F)(F)F)ccc2N2CCCC2)CC1,inactive
22,O=C(CCc1c[nH]c2ccccc12)N1CCN(c2ccc(O)cc2)CC1,inactive

# Looked up above.
# Entry for CC(=O)NCc1ccc(C(=O)CCl)s1 under Potency: inconclusive: 35.5 µM [inhibitor, single point]
# Entry for CSc1ccccc1NC(=O)CN(C)CC(=O)Nc1ccccc1F under Potency: inactive
# Entry for COc1ccccc1C(=O)Nc1ccccc1SC(=O)c1ccccc1OC under Potency: inconclusive: 44.7 µM [inhibitor, partial curve]

# (continued)

row,SMILES,Potency
1,CCc1cccc(NC(=O)c2cc(S(=O)(=O)N3CCCCCC3)cn2C)c1,"inconclusive: 70.8 µM [inhibitor, partial curve, poor fit]"
2,COc1ccccc1N1CCN(C(=O)c2cc3c(s2)-c2ccccc2OC3)CC1,"inconclusive: 6.31 µM [inhibitor, single point]"
3,CC(=O)c1ccc2c(c1)C1C=CCC1C(C(=O)O)N2 (stereo unspecified),active: 31.6 µM
4,CC(C)C(C(=O)NCc1ccco1)N(C(=O)CNS(=O)(=O)c1ccccc1)C1CCCC1 (stereo unspecified),"inconclusive: 2.51 µM [inhibitor, full curve, poor fit]"
5,CC(=O)c1cccc(NC(=O)Cn2c(-c3cncs3)nc3ccccc32)c1,inactive
6,CSC1=NCCN1C(=O)C(C)Oc1ccccc1 (stereo unspecified),"inconclusive: 0.708 µM [inhibitor, full curve]"
7,O=c1ccc2ccccc2o1,"inconclusive: 15.8 µM [inhibitor, partial curve, poor fit]"
8,O=C(CSc1nnc(-c2ccc(Cl)cc2)n1Cc1ccco1)c1cccs1,"inconclusive: 15.8 µM [inhibitor, partial curve]"
9,CCOc1ccc(NS(=O)(=O)c2ccc3[nH]cc(C(=O)N4CCCC4)c(=O)c3c2)cc1,"inconclusive: 0.631 µM [inhibitor, full curve, poor fit]"
10,CCOc1ccccc1NC(=O)CN1CCN(C(=O)C2CCCO2)CC1 (stereo unspecified),inactive
11,Cc1cc(C)c(-c2csc(NC(=O)C3=COCCO3)n2)cc1C,"inconclusive: 44.7 µM [inhibitor, partial curve, poor fit]"
12,O=C1CCc2cc(S(=O)(=O)NC(C(=O)Nc3ccc(F)cc3)c3ccccc3)ccc2N1 (stereo unspecified),inactive
13,CCN(CC)S(=O)(=O)c1ccc(Cl)c(NC(=O)COC(=O)c2ccc([N+](=O)[O-])o2)c1,"inconclusive: 31.6 µM [inhibitor, partial curve]"
14,O=C1CCCC(=O)C1CS(=O)(=O)c1ccccc1,inactive
15,CN(C)Cc1cc(O)c(CN(C)C)cc1O,"inconclusive: 17.8 µM [inhibitor, partial curve]"
16,Cc1cc(C=C2C(=O)c3ccccc3C2=O)c(C)n1-c1ccc(Cl)cc1,inactive
17,CCOc1ccc(OCC)c(S(=O)(=O)N2CCOCC2)c1,"inconclusive: 11.2 µM [inhibitor, single point]"
18,COc1cc(C2CC(=O)N(c3ccc(C)c(Cl)c3)C3=C2C(=O)OC3)cc(OC)c1OC (stereo unspecified),"inconclusive: 5.62 µM [inhibitor, partial curve]"
19,O=C1CC(c2ccc(O)c(O)c2)Oc2c1ccc(O)c2O (stereo unspecified),"inconclusive: 35.5 µM [inhibitor, partial curve, poor fit]"
20,CC(=O)Oc1ccc2c(c1)C(=O)CCCCCC(=O)O2,inactive
21,CSc1cccc(NC(=S)N(Cc2ccccc2)Cc2ccccn2)c1,"inconclusive: 25.1 µM [inhibitor, partial curve]"
22,Fc1ccc(Nc2nc(SCc3ccc(Cl)cc3)nc3ccccc23)cc1,"inconclusive: 2.51 µM [inhibitor, full curve]"
